# Laboratory results as given in PMC7434441.
# T1: BCL9 (full-length, endogenous in control mouse colorectal tumors) (mouse (endogenous in mouse colorectal tumors)) (UniProt Q9D219)
# T1 sequence: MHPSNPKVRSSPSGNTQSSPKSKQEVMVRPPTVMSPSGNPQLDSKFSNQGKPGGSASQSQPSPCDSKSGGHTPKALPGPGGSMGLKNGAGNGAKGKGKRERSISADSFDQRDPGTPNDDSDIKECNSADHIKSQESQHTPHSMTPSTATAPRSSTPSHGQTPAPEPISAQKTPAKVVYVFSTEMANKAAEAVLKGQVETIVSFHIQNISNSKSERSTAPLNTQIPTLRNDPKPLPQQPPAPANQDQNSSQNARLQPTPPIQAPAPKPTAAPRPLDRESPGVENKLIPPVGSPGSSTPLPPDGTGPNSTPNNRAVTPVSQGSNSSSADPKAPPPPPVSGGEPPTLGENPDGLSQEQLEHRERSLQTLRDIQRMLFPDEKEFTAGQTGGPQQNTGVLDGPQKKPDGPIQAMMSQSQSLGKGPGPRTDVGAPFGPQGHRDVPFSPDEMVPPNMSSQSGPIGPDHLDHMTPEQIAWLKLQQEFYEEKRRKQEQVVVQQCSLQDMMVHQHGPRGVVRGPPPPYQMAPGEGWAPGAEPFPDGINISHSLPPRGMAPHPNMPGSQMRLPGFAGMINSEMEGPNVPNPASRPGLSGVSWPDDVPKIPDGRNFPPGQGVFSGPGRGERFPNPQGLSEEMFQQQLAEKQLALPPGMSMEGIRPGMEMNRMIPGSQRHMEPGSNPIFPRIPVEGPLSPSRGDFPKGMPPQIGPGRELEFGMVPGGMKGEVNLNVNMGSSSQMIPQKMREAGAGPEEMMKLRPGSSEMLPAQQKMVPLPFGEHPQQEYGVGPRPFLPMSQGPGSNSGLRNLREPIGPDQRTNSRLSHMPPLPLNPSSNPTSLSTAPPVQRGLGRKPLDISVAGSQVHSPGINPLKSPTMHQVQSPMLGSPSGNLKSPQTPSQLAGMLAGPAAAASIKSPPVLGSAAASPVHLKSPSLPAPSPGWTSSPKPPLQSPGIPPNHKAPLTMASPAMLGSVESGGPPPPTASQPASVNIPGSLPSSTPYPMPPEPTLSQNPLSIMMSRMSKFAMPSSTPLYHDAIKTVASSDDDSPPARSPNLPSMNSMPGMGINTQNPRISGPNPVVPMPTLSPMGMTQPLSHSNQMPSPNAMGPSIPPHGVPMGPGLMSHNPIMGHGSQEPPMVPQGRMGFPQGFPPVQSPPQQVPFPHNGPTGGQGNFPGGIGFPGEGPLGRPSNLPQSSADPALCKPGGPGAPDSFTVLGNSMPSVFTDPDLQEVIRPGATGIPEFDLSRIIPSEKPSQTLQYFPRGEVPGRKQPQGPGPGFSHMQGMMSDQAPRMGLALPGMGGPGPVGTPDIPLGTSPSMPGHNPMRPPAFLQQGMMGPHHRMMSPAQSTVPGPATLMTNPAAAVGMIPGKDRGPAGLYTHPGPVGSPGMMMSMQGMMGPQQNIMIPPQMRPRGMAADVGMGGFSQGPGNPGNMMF
# How the values were obtained:
# [1] = target: BCL9-ΔHD1 (HD1-deleted variant of BCL9, endogenous in Bcl9/9l-ΔHD1 mouse tumors) (mouse (endogenous in mouse colorectal tumors)) (UniProt Q9D219); assay: affinity purification with mass spectrometry; anti-BCL9 antibody and protein A Sepharose on protein extracts of control or Bcl9/9l-ΔHD1 mouse tumors; hypotonic lysis buffer (20 mM tris-HCl, 75 mM NaCl, 1.5 mM MgCl2, 1 mM EGTA, 0.5% NP-40, 5% glycerol), 4 hr at 4°C, three washes in lysis buffer; LC-MS/MS
# [2] = target: T1, BCL9 (full-length, endogenous in control mouse colorectal tumors) (mouse (endogenous in mouse colorectal tumors)); assay: as above
binder,measurement,setting,value
"TBX3 (endogenous in mouse colorectal tumors) (protein, UniProt P70324 1-741) MSLSMRDPVIPGTSMAYHPFLPHRAPDFAMSAVLGHQPPFFPALTLPPNGAAALSLPGALAKPIMDQLVGAAETGIPFSSLGPQAHLRPLKTMEPEEDVEDDPKVHLEAKELWDQFHKRGTEMVITKSGRRMFPPFKVRCSGLDKKAKYILLMDIIAADDCRYKFHNSRWMVAGKADPEMPKRMYIHPDSPATGEQWMSKVVTFHKLKLTNNISDKHGFTLAFPSDHATWQGNYSFGTQTILNSMHKYQPRFHIVRANDILKLPYSTFRTYLFPETEFIAVTAYQNDKITQLKIDNNPFAKGFRDTGNGRREKRKQLTLQSMRVFEERHKKETSDESSSEQAAFNCFAQASSPAVSIVGTSNLKDLCPSEAESDAEAESKEEHGPEACDAAKISTTTAEEPGRDKGSPATRAQLFPAEPSRARDTARLDKASPDSRHSPATISSSTRVPGADERRSPGREGPVATKVDEARAIPAKDAFAPLSVQTDATAHLAQGPLPGLGFAPGLAGQQFFNGHPLFLHPGQFAMGGAFSSMAAGMGPLLATVSGASTGVSGLESTAMASAAAAQGLSGASAATLPFHLQQHVLASQGLAMSPFGSLFPYPYTYMAAAAAASTAAASSSVHRHPFLNLNSMRPRLRYSPYSIPVPVPDSSSLLATALPSMASAAGPLDGKAAALAASPASVAVDSGSELNSRSSTLSSGSVSLSPKLCSEKEAATSELQSIQRLVSGLEAKPDRSCSGSP",binding,[1],no binding
same,binding,[2],binds

# Results are given in words; binding and its absence hold for the method and conditions named. In cells and extracts the contact can be indirect. A yes stands for co-enrichment or nearness to the bait. Other partners may have been found. For some assays here: No binding means not detected with the bait.
